The series can be described thus: general procedure: peptide synthesis; H-Lys(Boc)-2-ClTrt resin; HATU/DIPEA. Conditions: lipidation step, based on penta peptide intermediate 4, chloride.

Consider CGKRK-lipopeptide 1, for which the step yield came to 55%.
